Each structure is given as a SMILES string. Some of the results follow. Values are raw readings; no control value is given beside them.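 In the initial screen, polymyxin B was used at a concentration that permeabilizes Salmonella's outer membrane but not its inner membrane. Maximum growth was set by DMSO wells with or without polymyxin B. Since plates varied, data were ranked per plate, and compounds giving the lowest OD600 advanced as hits.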

The text below walks through data of the supplement of paper PMC12889115.

For this test, the system named is Salmonella enterica serovar Typhimurium SL1344. The test can be described thus: bacterial growth OD600 after 18 h with compound and polymyxin B; higher = more bacterial growth (less inhibition). As to conditions: 50 µM, Mueller-Hinton broth.

For the compound `O=C(CN1C(=O)c2ccccc2C1=O)NC1CCCc2c1cnn2-c1ccccc1F` (configuration not stated), the “bacterial growth OD600” value (polymyxin B 1 µg/mL) was determined as 1.04.

Regarding `CC(=O)c1cc(C(=O)NCc2nc(-c3cccc(NC(=O)C4CCCN(C)C4)c3)oc2C)cs1` (configuration not stated), the “bacterial growth OD600” value (polymyxin B 0.75 µg/mL) worked out at 0.861.

`CC(=O)N1CCC(Oc2ccc(Cl)cc2C(=O)NCc2ccc(C)s2)CC1`: the “bacterial growth OD600” value (polymyxin B 1 µg/mL) was 0.933.

As for `CCN(CC)C1CCN(C(=O)c2cn(C3CC3)cc(C(=O)NCC3CCCCC3)c2=O)C1` (configuration not stated), the “bacterial growth OD600” value (polymyxin B 0.75 µg/mL) is 0.741.

As to `COc1ccc(C(CC(=O)N(C)Cc2c(C)nn(C)c2C)c2ccccc2)cc1` (configuration not stated), where the note is “polymyxin B 1 µg/mL”, the “bacterial growth OD600” value amounted to 0.801.

For `Cc1ccccc1C(=O)NC1CC(C)(C)Cc2nc(N3CCOCC3)ncc21` (configuration not stated), the “bacterial growth OD600” value (polymyxin B 0.75 µg/mL) was 0.754.

In the case of `O=S(=O)(Cc1ccccc1)NCC1CCCN(Cc2cccc3cccnc23)C1` (configuration not stated), the “bacterial growth OD600” value (polymyxin B 0.75 µg/mL) turned out to be 0.777.

As for `O=C1N(Cc2ccc(F)c(F)c2)CCCC1(O)CNC1(c2ccccc2)CC1` (configuration not stated), the “bacterial growth OD600” value (polymyxin B 1 µg/mL) came to 0.833.

Regarding `O=C(c1ccccc1)N1CCC2(CCCN(Cc3ccc(F)cc3)C2=O)C1` (configuration not stated), for the setting “polymyxin B 1 µg/mL”, the “bacterial growth OD600” value stood at 1.04.

As to `COc1cccc(CC2CN(Cc3cccn3-c3nccs3)CCO2)c1` (configuration not stated), the “bacterial growth OD600” value (polymyxin B 0.75 µg/mL) was 0.723.

In the case of `CCN(CC1CCCN(CCc2cccc(F)c2)C1)C(=O)CC(C)C` (configuration not stated), the “bacterial growth OD600” value (polymyxin B 1 µg/mL) was found to be 0.994.

For the compound `COc1ccc2c(c1)OC(C)CN(Cc1ccc3cccnc3c1)C2` (configuration not stated), the “bacterial growth OD600” value (polymyxin B 0.75 µg/mL) worked out at 0.827.

`CC1CCN(Cc2nnnn2CC(=O)N2CCCC(C(=O)c3cccnc3)C2)CC1` (configuration not stated): the “bacterial growth OD600” value (polymyxin B 1 µg/mL) turned out to be 0.962.

Take `CCOC(=O)CC1COCCN1Cc1nc(-c2ccc(C(=O)OC)cc2)oc1C` (configuration not stated): where the note is “polymyxin B 1 µg/mL”, the “bacterial growth OD600” value was determined as 0.915.

Regarding `O=C(Nc1ccc2c(c1)CN(C(=O)C#Cc1ccccc1)CC2)c1ccccn1`, the “bacterial growth OD600” value (polymyxin B 1 µg/mL) is 1.2.

With `O=C(CCc1ccccc1)Nc1ccc(N2CCC(NCc3cccc(-n4cccn4)c3)CC2)cc1`, the “bacterial growth OD600” value (polymyxin B 0.75 µg/mL) stood at 0.776.

As to `CCCN(CC1CCCO1)C(=O)C1CCN(c2nc(C)c3ccc(S(C)(=O)=O)cc3n2)CC1` (configuration not stated), for the setting “polymyxin B 0.75 µg/mL”, the “bacterial growth OD600” value was 0.779.

For `Cc1ccccc1CCN1CCC(CN(C(=O)c2snnc2C)C2CCCC2)CC1`, the “bacterial growth OD600” value (polymyxin B 1 µg/mL) was 0.757.

In the case of `CCOC(=O)C1(CCOc2ccccc2)CCCN(C(=O)CCc2c(C)noc2C)C1` (configuration not stated), the “bacterial growth OD600” value (polymyxin B 1 µg/mL) worked out at 0.768.

On to `COC(=O)CCCC(=O)N1CCCC(N(C)Cc2ccccc2)C1` (configuration not stated), for which the “bacterial growth OD600” value (polymyxin B 1 µg/mL) is 0.971.

In the case of `CN(Cc1ccccc1)C(=O)c1csc2nc(-c3cccc(F)c3)cn12`, the “bacterial growth OD600” value (polymyxin B 0.75 µg/mL) was 0.005.

With `O=C(c1cccs1)C1CCCN(Cc2nc(Cc3ccccc3F)no2)C1` (configuration not stated), the “bacterial growth OD600” value (polymyxin B 1 µg/mL) came to 0.907.

For the compound `COC(=O)CCCC(=O)N1CCCC(Nc2ccc(F)c(F)c2)C1` (configuration not stated), the “bacterial growth OD600” value (polymyxin B 1 µg/mL) turned out to be 0.89.

Take `CN(C)C1(C(=O)NCc2c(F)cccc2Cl)Cc2ccccc2C1`: under “polymyxin B 1 µg/mL”, the “bacterial growth OD600” value was found to be 1.23.

Regarding `CSc1ccc(CNC(C)c2cnc(-c3ccncc3)nc2C)cc1` (configuration not stated), the “bacterial growth OD600” value (polymyxin B 1 µg/mL) is 0.864.

On to `Cc1cccc(C)c1Oc1ncccc1CNC(=O)Cc1ccccn1`, for which the “bacterial growth OD600” value (polymyxin B 1 µg/mL) was 1.02.

As to `Cc1cnc(C)c(N2CCC(C3CCN(Cc4cccnc4)CC3)C2)n1` (configuration not stated), the “bacterial growth OD600” value (polymyxin B 0.75 µg/mL) amounted to 0.934.

For the compound `Cc1cc2c(c(-c3cnccn3)c1)OC(CNC(=O)/C=C/c1cccs1)C2` (configuration not stated), for the setting “polymyxin B 0.75 µg/mL”, the “bacterial growth OD600” value was 0.007.

On to `CC1(C)CC(NC(=O)c2coc(COc3ccccc3)n2)CCO1` (configuration not stated), for which, for the setting “polymyxin B 1 µg/mL”, the “bacterial growth OD600” value stood at 0.926.

Take `O=C(CC1=CCCCC1)N1CCc2[nH]nc(-c3cccc(F)c3)c2C1`: the “bacterial growth OD600” value (polymyxin B 0.75 µg/mL) was 0.596.

For the compound `CCCc1cc(CNC(=O)c2ccc(N3CCCC3c3ccccn3)nc2)on1` (configuration not stated), the “bacterial growth OD600” value (polymyxin B 1 µg/mL) stood at 0.989.

With `CCC(COC)NC1CCN(c2ccc(C(=O)NCc3ccc4c(c3)OCO4)cc2)CC1` (configuration not stated), for the setting “polymyxin B 0.75 µg/mL”, the “bacterial growth OD600” value stood at 0.92.
